In PMC11835246:
These are yes or no findings as the source states them, for the method shown.

Amino acid sequences for entries named in this document (tags omitted). A change or cut given only in a name is not applied to a line headed by its entry. Residues count along the entry.
UniProt P04146, residues 1-185: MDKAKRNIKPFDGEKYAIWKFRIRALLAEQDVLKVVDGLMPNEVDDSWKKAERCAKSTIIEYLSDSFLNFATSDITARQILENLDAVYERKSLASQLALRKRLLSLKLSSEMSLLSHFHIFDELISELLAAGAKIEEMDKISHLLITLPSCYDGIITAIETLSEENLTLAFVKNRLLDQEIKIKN

Biological target: Copia^GagΔNC (Drosophila melanogaster) (UniProt P04146)
Assay: SEC; Superose 6 Increase 10/300 GL after overnight Ulp1 digestion; 25 mM HEPES pH 7.4, 150 mM NaCl, 10% glycerol, 100 uM ZnCl2, 500 mM imidazole, 2 mM 2-mercaptoethanol; assembled capsids elute at fraction 7, unassembled protein at fractions 24 to 26; both purified

Q: How did the binding turn out when “Copia^GagΔNC (from UniProt P04146 1-185) (domain or fragment)” was run?
A: no binding
